Data as given in the supplement of paper PMC12425257.
± gives the standard deviation of the averaged measurements. The list shows a part of the results.

Test system: Madurella mycetomatis MM55
Assay: metabolic activity (growth) relative to DMSO growth control; higher = more fungal growth

| Structure (SMILES) | metabolic activity (1 µM) | metabolic activity (2 µM) | metabolic activity (10 µM) | metabolic activity (4 µM) | metabolic activity (8 µM) |
| --- | --- | --- | --- | --- | --- |
| Nc1ncnn2c(CN3CCOCC3)cc(-c3cc(F)c(CO)c(F)c3)c12 | 84.5 ± 14% | 92.7 ± 25% | 96.3 ± 17% | – | – |
| O=C(Nc1ccccc1)Nc1cccc(Oc2ccc3nccn3n2)c1 | 87.3 ± 35% | 63.4 ± 1.9% | 97.1 ± 13% | – | – |
| CNC(=O)c1nn(C)c2c1C(C)(C)Cc1cnc(Nc3ccc(N4CCN(C)CC4)cc3C)nc1-2 | 122 ± 17% | 115 ± 20% | 117 ± 7.7% | – | – |
| COc1ccccc1-c1cc(/C=C2\C(=O)Nc3ncc(Br)cc32)cc(Br)c1O | 82.8 ± 1.4% | 80.7 ± 28% | 134 ± 25% | – | – |
| Cc1cccc(-c2nc(Nc3ccncc3)c3ccccc3n2)n1 | 83.9 ± 14% | 74.6 ± 10% | 15.6 ± 3.7% | 198 ± 70% | 48.9 ± 21% |
| CCN(C)S(=O)(=O)Nc1cccc(-c2ccc3c(NC(=O)C4CC4)n[nH]c3c2)c1 | 108 ± 38% | 98.3 ± 11% | 117 ± 11% | – | – |
| c1ccc(-c2cc3ccncc3cc2OC2CCNCC2)cc1 | 86.3 ± 1.1% | 94.5 ± 8.5% | 93.7 ± 5% | – | – |
| O=C(O)CSc1ncnc2cc(-c3ccc(F)cc3)sc12 | 108.3 ± 0.45% | 84.2 ± 29% | 110 ± 26% | – | – |
| Fc1ccc(-c2nn3ccccc3c2-c2ccncc2)cc1 | 64.3 ± 19% | 67.2 ± 16% | 6.51 ± 0.53% | 43.2 ± 28% | 2.88 ± 4.4% |
| O=C(Nc1cccnc1)c1cc(-c2ccnc(F)c2)ccc1OCc1ccccc1 | 111 ± 22% | 109 ± 14% | 122 ± 56% | – | – |
| COC(=O)c1c(-c2ccccc2)c2cc(Br)ccc2c(=O)n1Cc1ccc(S(C)(=O)=O)cc1 | 89.8 ± 18% | 89.35 ± 0.37% | 108 ± 3.6% | – | – |
| COc1cc(Nc2ccnc3ccc(Br)cc23)cc(OC)c1OC | 109 ± 24% | 115 ± 21% | 124 ± 13% | – | – |
| Fc1ccccc1-c1cc(NCc2cccnc2)n2ncc(Br)c2n1 | 94.8 ± 12% | 91.5 ± 9.5% | 26.7 ± 12% | – | – |

For convenience, 2 of the compounds above.

| Structure (SMILES) | metabolic activity (1 µM) | metabolic activity (2 µM) | metabolic activity (10 µM) | metabolic activity (4 µM) | metabolic activity (8 µM) |
| --- | --- | --- | --- | --- | --- |
| COc1ccccc1-c1cc(/C=C2\C(=O)Nc3ncc(Br)cc32)cc(Br)c1O | 82.8 ± 1.4% | 80.7 ± 28% | 134 ± 25% | – | – |
| Cc1cccc(-c2nc(Nc3ccncc3)c3ccccc3n2)n1 | 83.9 ± 14% | 74.6 ± 10% | 15.6 ± 3.7% | 198 ± 70% | 48.9 ± 21% |
